Experimental data taken from publication PMC4505944, “The THERMOSENSITIVE MALE STERILE 1 Interacts with the BiPs via DnaJ Domain and Stimulates Their ATPase Enzyme Activities in Arabidopsis” (PLoS ONE, 2015).

Amino acid sequences for entries named in this document (tags omitted). A change or cut given only in a name is not applied to a line headed by its entry. Residues count along the entry.
UniProt Q9SR96: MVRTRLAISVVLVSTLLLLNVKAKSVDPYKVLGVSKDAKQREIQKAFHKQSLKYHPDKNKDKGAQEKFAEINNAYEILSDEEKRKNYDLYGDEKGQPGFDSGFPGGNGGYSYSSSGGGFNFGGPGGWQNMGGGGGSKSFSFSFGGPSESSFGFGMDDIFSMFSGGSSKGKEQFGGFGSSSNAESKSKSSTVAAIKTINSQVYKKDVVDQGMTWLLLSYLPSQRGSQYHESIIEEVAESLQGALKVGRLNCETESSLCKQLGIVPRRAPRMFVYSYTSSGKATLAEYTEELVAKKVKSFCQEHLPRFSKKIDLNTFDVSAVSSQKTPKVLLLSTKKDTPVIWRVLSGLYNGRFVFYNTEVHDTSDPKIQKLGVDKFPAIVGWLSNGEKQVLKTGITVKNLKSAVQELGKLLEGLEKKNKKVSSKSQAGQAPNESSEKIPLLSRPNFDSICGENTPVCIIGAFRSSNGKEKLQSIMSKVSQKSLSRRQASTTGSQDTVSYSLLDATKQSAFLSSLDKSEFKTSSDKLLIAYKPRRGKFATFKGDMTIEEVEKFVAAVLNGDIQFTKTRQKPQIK
UniProt Q9LKR3, residues 28-669: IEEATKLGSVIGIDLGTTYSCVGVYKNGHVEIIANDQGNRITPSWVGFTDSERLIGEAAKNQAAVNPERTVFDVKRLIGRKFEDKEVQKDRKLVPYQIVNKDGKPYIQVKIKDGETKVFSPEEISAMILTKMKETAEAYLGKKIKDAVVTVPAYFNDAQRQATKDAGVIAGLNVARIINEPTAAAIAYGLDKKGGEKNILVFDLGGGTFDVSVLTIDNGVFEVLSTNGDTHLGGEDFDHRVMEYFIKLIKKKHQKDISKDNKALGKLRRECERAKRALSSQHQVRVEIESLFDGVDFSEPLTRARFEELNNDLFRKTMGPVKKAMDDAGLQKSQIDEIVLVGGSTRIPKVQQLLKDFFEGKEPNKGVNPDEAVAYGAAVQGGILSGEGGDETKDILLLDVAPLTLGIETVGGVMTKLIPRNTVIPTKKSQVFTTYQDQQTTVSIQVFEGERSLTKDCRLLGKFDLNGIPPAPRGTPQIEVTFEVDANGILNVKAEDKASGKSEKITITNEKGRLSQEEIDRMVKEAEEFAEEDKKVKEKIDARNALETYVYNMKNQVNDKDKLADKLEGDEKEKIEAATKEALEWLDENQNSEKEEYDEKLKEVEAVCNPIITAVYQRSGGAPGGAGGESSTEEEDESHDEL
UniProt Q8H1B3, residues 36-675: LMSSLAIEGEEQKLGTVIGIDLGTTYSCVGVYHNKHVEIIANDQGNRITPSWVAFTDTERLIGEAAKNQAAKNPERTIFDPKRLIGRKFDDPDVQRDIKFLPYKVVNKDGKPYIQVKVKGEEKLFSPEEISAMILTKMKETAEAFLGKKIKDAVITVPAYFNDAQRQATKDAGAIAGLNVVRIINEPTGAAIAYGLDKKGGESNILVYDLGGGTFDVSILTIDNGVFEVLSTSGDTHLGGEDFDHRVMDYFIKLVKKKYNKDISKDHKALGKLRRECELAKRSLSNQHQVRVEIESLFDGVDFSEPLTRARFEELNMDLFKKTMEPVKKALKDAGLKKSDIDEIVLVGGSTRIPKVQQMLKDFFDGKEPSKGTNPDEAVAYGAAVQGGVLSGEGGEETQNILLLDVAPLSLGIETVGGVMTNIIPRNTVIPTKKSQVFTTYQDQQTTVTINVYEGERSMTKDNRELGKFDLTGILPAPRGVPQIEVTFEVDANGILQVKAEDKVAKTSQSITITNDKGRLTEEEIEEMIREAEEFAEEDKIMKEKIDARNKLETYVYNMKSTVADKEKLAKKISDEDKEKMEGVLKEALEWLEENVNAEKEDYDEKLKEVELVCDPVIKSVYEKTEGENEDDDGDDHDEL

How the values were obtained:
[1] = biological target: mutated TMS1 DnaJ domain with a GST tag (Arabidopsis thaliana) (UniProt Q9SR96); assay: pull-down; as the GST pull-down with ATP, but in the absence of ATP; GST fusion or GST on Glutathione Sepharose 4B beads, purified BiP1 or BiP3 added; anti-His blot; both purified
[2] = biological target: mutated TMS1 DnaJ domain with a GST tag (Arabidopsis thaliana) (UniProt Q9SR96); assay: pull-down; 30 μg GST fusion or GST on Glutathione Sepharose 4B beads; 30 μg purified BiP1 or BiP3 with 1 mM ATP in 1 mL binding buffer (20 mM Hepes pH 6.8, 100 mM KCl, 5 mM MgCl2, 0.1% NP-40, 2% glycerol, 1 mM DTT, 1 mM EDTA), 4°C, 2 h; anti-His blot; both purified

| Substance | binding [1] | binding [2] |
| --- | --- | --- |
| BiP1 without signal peptide, His-tagged (from UniProt Q9LKR3 28-669) | no binding (tested: 30 μg in 1 mL) | no binding (tested: 30 μg in 1 mL) |
| BiP3 without signal peptide, His-tagged (from UniProt Q8H1B3 36-675) | no binding (tested: 30 μg in 1 mL) | no binding (tested: 30 μg in 1 mL) |

Results are given in words; binding and its absence hold for the method and conditions named.
